Laboratory results as given in publication PMC11648244, “Substrate specificity and kinetic mechanism of 3β-hydroxy- Δ ^5-C27-steroid oxidoreductase” (The Journal of Biological Chemistry, 2024).
Results are given in words; binding and its absence hold for the method and conditions named.

Columns and labels:
[1] = target: 3β-hydroxy-Δ5-C27-steroid oxidoreductase (HSD3B7), wild type (human) (UniProt Q9H2F3); test: cross-linking; chemical crosslinking in solution, bands on a gel; both purified
[2] = target: 3β-hydroxy-Δ5-C27-steroid oxidoreductase (HSD3B7), wild type (human) (UniProt Q9H2F3); test: mass photometry; Refeyn TwoMP; sample diluted in its reaction buffer to 100 nM, in drop to 20 nM final; protein associated with DDM micelles; both purified
[3] = target: 3β-hydroxy-Δ5-C27-steroid oxidoreductase (HSD3B7), wild type (human) (UniProt Q9H2F3); test: native gel or EMSA; native-PAGE of the purified constructs; both purified

binding [1]: no binding
binding [2]: no binding (tested: 20 nM)
binding [3]: no binding
B1: 3β-hydroxy-Δ5-C27-steroid oxidoreductase (HSD3B7), wild type (enzyme, UniProt Q9H2F3 1-369)
chain: MADSAQAQKLVYLVTGGCGFLGEHVVRMLLQREPRLGELRVFDQHLGPWLEELKTGPVRVTAIQGDVTQAHEVAAAVAGAHVVIHTAGLVDVFGRASPKTIHEVNVQGTRNVIEACVQTGTRFLVYTSSMEVVGPNTKGHPFYRGNEDTPYEAVHRHPYPCSKALAEWLVLEANGRKVRGGLPLVTCALRPTGIYGEGHQIMRDFYRQGLRLGGWLFRAIPASVEHGRVYVGNVAWMHVLAARELEQRATLMGGQVYFCYDGSPYRSYEDFNMEFLGPCGLRLVGARPLLPYWLLVFLAALNALLQWLLRPLVLYAPLLNPYTLAVANTTFTVSTDKAQRHFGYEPLFSWEDSRTRTILWVQAATGSAQ
